From article PMC12221297, “Negative regulation of miRNA sorting into EVs is mediated by the capacity of RBP PCBP2 to impair the SYNCRIP-dependent miRNA loading”
These are yes or no findings as the source states them, for the method shown. Binding seen in cells or lysates may run through a third protein. Some binding calls cover weakened binding; strength is not graded here. Sequences can lack the tags named with a protein.

The chains behind the UniProt entries cited, without tags or fusion partners.
UniProt Q61990: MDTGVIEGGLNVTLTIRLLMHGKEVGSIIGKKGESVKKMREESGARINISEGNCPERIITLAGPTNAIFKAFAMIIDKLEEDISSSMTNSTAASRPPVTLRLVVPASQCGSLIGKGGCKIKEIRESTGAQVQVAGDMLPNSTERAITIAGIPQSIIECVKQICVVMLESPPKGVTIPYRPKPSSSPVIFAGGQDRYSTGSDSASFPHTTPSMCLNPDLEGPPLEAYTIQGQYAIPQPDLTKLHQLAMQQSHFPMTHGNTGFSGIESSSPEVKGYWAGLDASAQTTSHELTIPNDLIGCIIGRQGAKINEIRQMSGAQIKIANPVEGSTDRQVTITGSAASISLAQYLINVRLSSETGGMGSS

Biological target: PCBP2 (mouse (endogenous in murine hepatocyte 3A cells)) (UniProt Q61990)
Assay: co-IP; immunoprecipitation with rabbit polyclonal anti-PCBP2, mouse monoclonal anti-SYNCRIP or preimmune IgG from 2 mg protein extract of murine hepatocytes; IP Lysis Buffer (150 mM NaCl, 50 mM Tris-HCl pH 7.5, 1% Triton X-100), 4°C overnight; washes with Net Gel Buffer and RIPA Buffer; western …

B1: Synaptotagmin-binding Cytoplasmic RNA-Interacting Protein (protein, UniProt Q7TMK9 1-623)
chain: MATEHVNGNGTEEPMDTTSAVIHSENFQTLLDAGLPQKVAEKLDEIYVAGLVAHSDLDERAIEALKEFNEDGALAVLQQFKDSDLSHVQNKSAFLCGVMKTYRQREKQGTKVADSSKGPDEAKIKALLERTGYTLDVTTGQRKYGGPPPDSVYSGQQPSVGTEIFVGKIPRDLFEDELVPLFEKAGPIWDLRLMMDPLTGLNRGYAFVTFCTKEAAQEAVKLYNNHEIRSGKHIGVCISVANNRLFVGSIPKSKTKEQILEEFSKVTEGLTDVILYHQPDDKKKNRGFCFLEYEDHKTAAQARRRLMSGKVKVWGNVGTVEWADPIEDPDPEVMAKVKVLFVRNLANTVTEEILEKSFSQFGKLERVKKLKDYAFIHFDERDGAVKAMEEMNGKDLEGENIEIVFAKPPDQKRKERKAQRQAAKNQMYDDYYYYGPPHMPPPTRGRGRGGRGGYGYPPDYYGYEDYYDYYGYDYHNYRGGYEDPYYGYEDFQVGARGRGGRGARGAAPSRGRGAAPPRGRAGYSQRGGPGSARGVRGARGGAQQQRGRGVRGARGGRGGNVGGKRKADGYNQPDTKRRQTNNQNWGSQPIAQQPLQGGDHSGNYGYKSENQEFYQDTFGQQWK
**Q.** B1 was tested. Which binding did it give?
**A.** binds
